# Some of the results follow.
# Protein sequences, listed by entry. Tags and fused reporters are not part of them. Lines headed by an entry give the natural chain unless they say otherwise; changes in a name come on top.
# UniProt Q9UKM7: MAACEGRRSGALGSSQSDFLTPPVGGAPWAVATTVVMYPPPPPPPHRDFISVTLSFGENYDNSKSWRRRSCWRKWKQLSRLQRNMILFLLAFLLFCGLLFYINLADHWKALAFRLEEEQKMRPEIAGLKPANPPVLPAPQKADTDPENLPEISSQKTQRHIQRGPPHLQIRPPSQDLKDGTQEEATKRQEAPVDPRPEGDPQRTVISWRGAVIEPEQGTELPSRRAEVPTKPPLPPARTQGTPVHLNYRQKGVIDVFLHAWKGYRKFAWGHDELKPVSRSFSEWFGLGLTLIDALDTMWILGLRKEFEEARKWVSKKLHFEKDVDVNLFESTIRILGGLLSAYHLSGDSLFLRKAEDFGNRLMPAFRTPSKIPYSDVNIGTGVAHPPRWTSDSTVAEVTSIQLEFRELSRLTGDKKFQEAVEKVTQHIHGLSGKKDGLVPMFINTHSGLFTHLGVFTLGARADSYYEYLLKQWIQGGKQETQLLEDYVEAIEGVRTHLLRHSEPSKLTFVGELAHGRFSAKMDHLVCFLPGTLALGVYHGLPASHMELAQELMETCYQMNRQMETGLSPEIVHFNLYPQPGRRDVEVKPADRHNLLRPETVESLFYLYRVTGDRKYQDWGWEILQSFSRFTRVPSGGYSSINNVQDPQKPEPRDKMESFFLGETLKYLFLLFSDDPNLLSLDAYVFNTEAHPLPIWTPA
# UniProt Q86V48: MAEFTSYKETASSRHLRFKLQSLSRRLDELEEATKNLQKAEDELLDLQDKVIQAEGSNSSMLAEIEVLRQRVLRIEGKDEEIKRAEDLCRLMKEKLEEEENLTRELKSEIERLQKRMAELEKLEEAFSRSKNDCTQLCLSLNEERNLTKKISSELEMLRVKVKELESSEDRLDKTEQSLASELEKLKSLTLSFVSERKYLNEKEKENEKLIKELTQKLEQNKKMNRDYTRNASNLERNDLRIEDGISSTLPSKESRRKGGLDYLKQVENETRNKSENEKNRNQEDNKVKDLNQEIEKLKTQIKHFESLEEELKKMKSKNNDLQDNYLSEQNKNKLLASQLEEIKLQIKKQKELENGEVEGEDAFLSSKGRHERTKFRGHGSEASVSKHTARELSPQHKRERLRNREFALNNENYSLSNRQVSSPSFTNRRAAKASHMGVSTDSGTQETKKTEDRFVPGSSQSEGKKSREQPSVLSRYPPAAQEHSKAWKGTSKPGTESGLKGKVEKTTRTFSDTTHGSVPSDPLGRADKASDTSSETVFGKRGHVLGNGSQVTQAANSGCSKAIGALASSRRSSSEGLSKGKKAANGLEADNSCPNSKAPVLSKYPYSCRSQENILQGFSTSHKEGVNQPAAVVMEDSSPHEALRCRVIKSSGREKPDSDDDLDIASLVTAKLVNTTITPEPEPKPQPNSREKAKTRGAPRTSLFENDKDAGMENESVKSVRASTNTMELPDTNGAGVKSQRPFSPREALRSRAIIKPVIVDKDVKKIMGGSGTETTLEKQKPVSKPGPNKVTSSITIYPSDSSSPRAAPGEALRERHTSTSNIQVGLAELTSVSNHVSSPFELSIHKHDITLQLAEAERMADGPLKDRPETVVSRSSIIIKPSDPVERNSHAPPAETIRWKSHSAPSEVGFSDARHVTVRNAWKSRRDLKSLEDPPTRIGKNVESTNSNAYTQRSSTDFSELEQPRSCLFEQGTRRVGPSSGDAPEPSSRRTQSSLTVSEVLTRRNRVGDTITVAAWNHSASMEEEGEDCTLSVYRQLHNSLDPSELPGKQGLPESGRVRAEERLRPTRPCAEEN
# UniProt Q9NU23: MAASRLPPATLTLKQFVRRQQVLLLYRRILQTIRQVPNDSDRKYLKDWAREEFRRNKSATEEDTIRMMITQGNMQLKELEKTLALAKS
# UniProt Q9NTJ4: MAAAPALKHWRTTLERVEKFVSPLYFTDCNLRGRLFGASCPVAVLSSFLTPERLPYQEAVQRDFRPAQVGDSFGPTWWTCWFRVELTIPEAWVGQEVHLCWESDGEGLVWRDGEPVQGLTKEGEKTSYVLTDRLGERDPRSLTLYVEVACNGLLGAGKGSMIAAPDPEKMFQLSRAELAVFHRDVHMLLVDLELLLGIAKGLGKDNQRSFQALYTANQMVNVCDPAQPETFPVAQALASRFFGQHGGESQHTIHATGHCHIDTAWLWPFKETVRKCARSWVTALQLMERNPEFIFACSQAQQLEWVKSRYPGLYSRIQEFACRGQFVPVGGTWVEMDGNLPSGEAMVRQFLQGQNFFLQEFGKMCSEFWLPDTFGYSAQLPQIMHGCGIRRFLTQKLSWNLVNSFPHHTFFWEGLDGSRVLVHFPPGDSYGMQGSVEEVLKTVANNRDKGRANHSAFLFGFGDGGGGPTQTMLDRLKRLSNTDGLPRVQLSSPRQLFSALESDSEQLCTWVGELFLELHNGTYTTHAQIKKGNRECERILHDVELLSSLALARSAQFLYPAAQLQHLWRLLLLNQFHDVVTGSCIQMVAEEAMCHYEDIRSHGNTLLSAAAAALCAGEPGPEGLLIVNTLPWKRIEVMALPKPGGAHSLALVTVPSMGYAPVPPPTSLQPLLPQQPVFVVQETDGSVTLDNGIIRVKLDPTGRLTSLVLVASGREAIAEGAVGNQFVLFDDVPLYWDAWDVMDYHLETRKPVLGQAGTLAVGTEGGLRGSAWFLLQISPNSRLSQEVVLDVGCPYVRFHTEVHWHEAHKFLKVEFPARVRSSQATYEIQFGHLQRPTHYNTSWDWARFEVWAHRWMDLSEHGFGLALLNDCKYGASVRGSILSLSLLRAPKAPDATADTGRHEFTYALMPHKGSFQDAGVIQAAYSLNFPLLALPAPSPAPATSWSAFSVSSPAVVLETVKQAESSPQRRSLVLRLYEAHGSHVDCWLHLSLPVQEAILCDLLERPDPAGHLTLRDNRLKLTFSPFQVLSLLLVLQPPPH
# UniProt Q9Y333: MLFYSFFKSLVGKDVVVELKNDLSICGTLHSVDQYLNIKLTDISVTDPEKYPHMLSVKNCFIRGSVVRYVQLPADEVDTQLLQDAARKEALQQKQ
# UniProt Q9UK45: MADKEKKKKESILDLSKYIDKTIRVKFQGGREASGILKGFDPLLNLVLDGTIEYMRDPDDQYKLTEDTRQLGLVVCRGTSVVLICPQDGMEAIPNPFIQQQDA
# UniProt P56192: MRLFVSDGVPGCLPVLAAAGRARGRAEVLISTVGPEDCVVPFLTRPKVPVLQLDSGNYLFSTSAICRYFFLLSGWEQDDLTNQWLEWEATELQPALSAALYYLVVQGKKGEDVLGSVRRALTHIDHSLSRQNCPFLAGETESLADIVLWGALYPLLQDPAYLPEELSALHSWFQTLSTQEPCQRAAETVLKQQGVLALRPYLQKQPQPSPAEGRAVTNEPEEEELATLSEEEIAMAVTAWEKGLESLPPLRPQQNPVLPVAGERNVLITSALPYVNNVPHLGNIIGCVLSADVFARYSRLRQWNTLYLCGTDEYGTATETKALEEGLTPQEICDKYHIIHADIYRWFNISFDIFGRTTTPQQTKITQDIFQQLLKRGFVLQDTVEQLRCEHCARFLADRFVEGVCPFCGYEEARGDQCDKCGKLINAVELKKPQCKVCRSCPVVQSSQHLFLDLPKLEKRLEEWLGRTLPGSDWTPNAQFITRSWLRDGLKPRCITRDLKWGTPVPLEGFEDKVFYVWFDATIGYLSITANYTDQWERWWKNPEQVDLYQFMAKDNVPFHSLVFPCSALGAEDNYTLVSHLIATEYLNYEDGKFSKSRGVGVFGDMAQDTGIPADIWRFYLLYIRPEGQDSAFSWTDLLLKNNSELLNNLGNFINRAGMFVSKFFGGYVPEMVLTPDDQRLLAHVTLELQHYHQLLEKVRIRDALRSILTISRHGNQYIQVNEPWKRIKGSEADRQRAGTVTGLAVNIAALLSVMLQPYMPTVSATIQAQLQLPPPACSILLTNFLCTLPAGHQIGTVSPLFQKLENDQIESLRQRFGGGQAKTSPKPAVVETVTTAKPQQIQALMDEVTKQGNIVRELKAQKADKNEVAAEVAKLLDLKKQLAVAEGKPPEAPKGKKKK
# UniProt O43318: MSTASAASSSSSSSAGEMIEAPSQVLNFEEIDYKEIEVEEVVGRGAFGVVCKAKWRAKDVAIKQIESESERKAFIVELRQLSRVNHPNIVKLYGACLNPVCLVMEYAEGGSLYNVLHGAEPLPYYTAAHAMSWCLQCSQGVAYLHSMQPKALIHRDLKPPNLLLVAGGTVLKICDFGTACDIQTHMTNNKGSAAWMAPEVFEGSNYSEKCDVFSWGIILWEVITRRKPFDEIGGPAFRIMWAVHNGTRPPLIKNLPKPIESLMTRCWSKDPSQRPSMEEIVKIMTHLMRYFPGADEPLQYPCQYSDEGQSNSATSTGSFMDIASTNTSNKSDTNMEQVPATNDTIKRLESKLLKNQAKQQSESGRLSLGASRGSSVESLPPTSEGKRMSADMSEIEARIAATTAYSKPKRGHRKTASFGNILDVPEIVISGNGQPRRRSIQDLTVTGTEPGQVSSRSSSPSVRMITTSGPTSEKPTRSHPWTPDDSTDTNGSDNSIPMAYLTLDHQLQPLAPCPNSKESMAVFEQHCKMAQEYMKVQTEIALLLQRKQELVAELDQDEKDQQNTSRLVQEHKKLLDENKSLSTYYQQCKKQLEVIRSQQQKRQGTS
# UniProt Q16644, whole entry, looked up: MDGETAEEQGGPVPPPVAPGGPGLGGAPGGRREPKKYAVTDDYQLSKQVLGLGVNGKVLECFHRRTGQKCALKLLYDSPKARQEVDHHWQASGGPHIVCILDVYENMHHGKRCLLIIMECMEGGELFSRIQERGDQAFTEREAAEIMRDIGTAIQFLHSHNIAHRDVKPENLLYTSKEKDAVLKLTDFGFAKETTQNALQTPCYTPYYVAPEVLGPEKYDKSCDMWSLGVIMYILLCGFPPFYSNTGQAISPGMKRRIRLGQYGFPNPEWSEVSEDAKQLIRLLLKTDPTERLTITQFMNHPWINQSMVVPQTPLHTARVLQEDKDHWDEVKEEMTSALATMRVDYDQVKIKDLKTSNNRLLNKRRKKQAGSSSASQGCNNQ
# UniProt O95819: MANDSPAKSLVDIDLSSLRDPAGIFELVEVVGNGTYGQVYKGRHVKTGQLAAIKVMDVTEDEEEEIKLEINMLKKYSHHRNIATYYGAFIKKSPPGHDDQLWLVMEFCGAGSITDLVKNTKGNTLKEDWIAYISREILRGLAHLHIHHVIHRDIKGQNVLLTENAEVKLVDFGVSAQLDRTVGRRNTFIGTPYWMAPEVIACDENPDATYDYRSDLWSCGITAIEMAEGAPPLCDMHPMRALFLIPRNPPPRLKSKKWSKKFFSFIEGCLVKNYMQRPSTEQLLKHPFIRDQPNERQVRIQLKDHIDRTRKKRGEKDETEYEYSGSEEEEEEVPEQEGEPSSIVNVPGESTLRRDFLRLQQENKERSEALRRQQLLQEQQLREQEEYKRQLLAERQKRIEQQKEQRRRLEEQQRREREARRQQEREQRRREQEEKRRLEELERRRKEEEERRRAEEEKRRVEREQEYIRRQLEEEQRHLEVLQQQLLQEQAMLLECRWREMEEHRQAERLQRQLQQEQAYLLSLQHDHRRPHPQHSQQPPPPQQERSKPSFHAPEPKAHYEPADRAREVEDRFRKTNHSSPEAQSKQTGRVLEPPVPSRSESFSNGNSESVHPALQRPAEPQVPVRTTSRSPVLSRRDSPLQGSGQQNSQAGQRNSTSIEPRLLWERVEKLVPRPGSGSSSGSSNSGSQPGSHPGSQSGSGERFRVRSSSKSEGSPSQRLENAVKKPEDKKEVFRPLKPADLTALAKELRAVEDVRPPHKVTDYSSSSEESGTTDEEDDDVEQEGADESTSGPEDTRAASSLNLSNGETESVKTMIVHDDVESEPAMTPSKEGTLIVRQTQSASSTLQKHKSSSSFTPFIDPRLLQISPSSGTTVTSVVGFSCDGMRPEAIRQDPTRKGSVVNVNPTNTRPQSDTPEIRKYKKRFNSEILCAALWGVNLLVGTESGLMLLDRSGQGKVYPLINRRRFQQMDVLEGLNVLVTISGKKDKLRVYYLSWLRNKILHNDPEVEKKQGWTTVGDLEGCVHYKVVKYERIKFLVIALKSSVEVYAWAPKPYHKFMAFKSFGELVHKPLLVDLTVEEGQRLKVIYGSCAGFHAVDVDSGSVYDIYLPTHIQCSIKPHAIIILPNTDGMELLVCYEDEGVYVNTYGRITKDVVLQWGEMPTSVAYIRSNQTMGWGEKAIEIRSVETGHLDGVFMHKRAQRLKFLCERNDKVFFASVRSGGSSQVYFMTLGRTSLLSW
# UniProt P29966: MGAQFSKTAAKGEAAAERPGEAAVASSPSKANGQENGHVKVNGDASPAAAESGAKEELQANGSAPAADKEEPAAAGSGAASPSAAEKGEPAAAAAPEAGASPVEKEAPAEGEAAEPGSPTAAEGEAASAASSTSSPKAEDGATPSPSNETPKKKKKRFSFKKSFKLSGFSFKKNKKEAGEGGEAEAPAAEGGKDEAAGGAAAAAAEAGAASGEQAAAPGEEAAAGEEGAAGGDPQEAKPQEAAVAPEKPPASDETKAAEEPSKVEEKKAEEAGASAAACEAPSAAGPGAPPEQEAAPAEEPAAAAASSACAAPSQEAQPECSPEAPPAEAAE
# Assays:
# Experiment in all cases: log2 fold change, soluble protein after heating vs DMSO (PISA); higher = thermal stabilisation; K562 cells, 10 uM, 30 min; active = over 0.2 and 3.5 SD of the protein, either way, in both replicates (recomputed)
# bafetinib = compound: Cc1ccc(NC(=O)c2ccc(CN3CC[C@H](N(C)C)C3)c(C(F)(F)F)c2)cc1Nc1nccc(-c2cncnc2)n1 [bafetinib]
# In short: (§1)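 K562 cells at 2×10^6 cells/mL were treated with 10 μM compound for 30 min. Aliquots were heated for 3 min across 48°C-58°C, pooled, and extracted in PBS with 0.5% NP-40 at 4°C; soluble protein was the supernatant after 21,000xg for 90 min. Soluble protein was quantified by TMTpro 16plex LC-MS/MS with channel sums equalised, and reported as log2 fold change in thermal stability against DMSO controls, with values from duplicates.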
# [1] = compound: Cc1cccc(CC(=O)N2CCc3c2ccc(-c2cn(C)c4ncnc(N)c24)c3F)n1
# In short: as §1
# nilotinib = compound: Cc1cn(-c2cc(NC(=O)c3ccc(C)c(Nc4nccc(-c5cccnc5)n4)c3)cc(C(F)(F)F)c2)cn1 [nilotinib]
# In short: as §1
# [2] = compound: Cc1nc(Nc2n[nH]c3c2CN(C(=O)N[C@H](CN(C)C)c2ccccc2)C3(C)C)c2sccc2n1
# In short: as §1
# dasatinib = compound: Cc1nc(Nc2ncc(C(=O)Nc3c(C)cccc3Cl)s2)cc(N2CCN(CCO)CC2)n1 [dasatinib]
# In short: as §1
# [3] = compound: Cc1ncc(-c2ccnc(Nc3ccc(S(C)(=O)=O)cc3)n2)n1C(C)C
# In short: as §1
# [4] = compound: Cn1cc(-c2ccc3c(c2)CCN3C(=O)Cc2cccc(C(F)(F)F)c2)c2c(N)ncnc21
# In short: as §1
# [5] = compound: Cn1cc(-c2ccc3nnc(C(F)(F)c4ccc5ncccc5c4)n3n2)cn1
# In short: as §1
# tipifarnib = compound: Cn1cncc1[C@@](N)(c1ccc(Cl)cc1)c1ccc2c(c1)c(-c1cccc(Cl)c1)cc(=O)n2C [tipifarnib]
# In short: as §1
# mubritinib = compound: FC(F)(F)c1ccc(/C=C/c2nc(COc3ccc(CCCCn4ccnn4)cc3)co2)cc1 [mubritinib]
# In short: as §1
Target,log2 fold change (bafetinib),log2 fold change [1],log2 fold change (nilotinib),log2 fold change [2],log2 fold change (dasatinib),log2 fold change [3],log2 fold change [4],log2 fold change [5],log2 fold change (tipifarnib),log2 fold change (mubritinib)
MAN1B1 (UniProt Q9UKM7),inactive: -0.044,inactive: 0.016,inactive: -0.025,inactive: -0.027,inactive: 0.055,inactive: -0.039,inactive: -0.004,inactive: 0.02,inactive: -0.014,inactive: -0.002
M6PR (UniProt P20645),inactive: -0.157,inactive: -0.098,inactive: 0.005,inactive: 0.032,inactive: 0.042,inactive: -0.024,inactive: 0.016,inactive: 0.003,inactive: -0.096,inactive: 0.004
LUZP1 (UniProt Q86V48),inactive: -0.075,inactive: -0.028,inactive: -0.086,inactive: -0.35,inactive: 0.106,inactive: 0.21,inactive: -0.129,inactive: -0.104,inactive: 0.186,inactive: -0.055
LUC7L2 (UniProt Q9Y383),inactive: 0.035,inactive: 0.002,inactive: 0.059,active: -2.75,inactive: -0.01,inactive: -0.007,inactive: -0.033,inactive: -0.059,inactive: 0.049,inactive: -0.07
LZTFL1 (UniProt Q9NQ48),inactive: -0.037,inactive: 0.024,inactive: 0.001,inactive: 0.018,inactive: -0.026,inactive: -0.026,inactive: 0.041,inactive: 0,inactive: -0.055,inactive: 0.033
LSM12 isoform 2 (UniProt Q3MHD2),inactive: 0.046,inactive: -0.072,inactive: 0.054,inactive: -0.014,inactive: 0.037,inactive: 0.026,inactive: 0.074,inactive: -0.031,inactive: -0.013,inactive: 0.012
MAP2K7 isoform 4 (UniProt O14733),inactive: -0.086,inactive: 0,inactive: -0.035,inactive: 0.025,inactive: -0.075,inactive: -0.039,inactive: -0.006,inactive: 0.02,inactive: 0.027,inactive: -0.018
LYRM2 (UniProt Q9NU23),inactive: 0.031,inactive: -0.051,inactive: 0.015,inactive: 0.004,inactive: -0.02,inactive: -0.013,inactive: 0.058,inactive: 0.016,inactive: -0.078,inactive: 0.001
MAN2C1 isoform 4 (UniProt Q9NTJ4),inactive: 0.03,inactive: -0.055,inactive: -0.116,inactive: 0.065,inactive: 0.088,inactive: -0.08,inactive: -0.09,inactive: 0.149,inactive: 0.046,inactive: -0.028
LTN1 isoform 3 (UniProt O94822),inactive: -0.036,inactive: 0.039,inactive: -0.079,inactive: -0.031,inactive: -0.122,inactive: -0.052,inactive: -0.09,inactive: -0.042,inactive: -0.151,inactive: -0.009
MAP2K1 (UniProt Q02750),inactive: -0.026,inactive: -0.039,inactive: -0.015,inactive: -0.052,inactive: -0.063,inactive: 0.008,inactive: 0.023,inactive: 0.021,inactive: -0.024,inactive: 0.015
LUC7L (UniProt Q9NQ29),inactive: 0.057,inactive: -0.046,inactive: 0.049,active: -1.71,inactive: 0.062,inactive: 0.109,inactive: -0.095,inactive: -0.054,inactive: 0.049,inactive: -0.099
MAP2K2 (UniProt P36507),inactive: -0.081,inactive: 0.007,inactive: -0.003,inactive: -0.154,inactive: -0.092,inactive: -0.018,inactive: 0.023,inactive: 0.098,inactive: 0.015,inactive: 0.017
LYAR (UniProt Q9NX58),inactive: 0.428,inactive: -0.059,inactive: 0.125,inactive: 0.213,inactive: 0.283,inactive: 0.161,inactive: -0.471,inactive: -0.252,inactive: 0.241,inactive: -0.207
LSM2 (UniProt Q9Y333),inactive: -0.048,inactive: 0,inactive: 0.018,inactive: 0.022,inactive: 0.056,inactive: 0.017,inactive: 0.026,inactive: 0.006,inactive: -0.005,inactive: 0.029
MAGEA9 (UniProt P43362),inactive: 0.03,inactive: -0.02,inactive: 0.021,inactive: -0.006,inactive: 0.074,inactive: -0.034,inactive: 0.065,inactive: -0.024,inactive: -0.008,inactive: -0.048
LSM7 (UniProt Q9UK45),inactive: 0.036,inactive: -0.05,inactive: -0.041,inactive: 0.025,inactive: 0.025,inactive: -0.031,inactive: 0.042,inactive: 0.016,inactive: -0.023,inactive: 0.013
MARCHF6 (UniProt O60337),inactive: -0.202,inactive: 0.031,inactive: -0.091,inactive: 0.011,inactive: -0.17,inactive: -0.004,inactive: -0.028,inactive: -0.034,inactive: -0.026,inactive: 0.031
MARS (UniProt P56192),inactive: -0.007,inactive: 0.038,inactive: -0.039,inactive: -0.012,inactive: -0.024,inactive: 0.016,inactive: -0.037,inactive: -0.081,inactive: -0.016,inactive: -0.008
MAP3K7 (UniProt O43318),inactive: 0.029,inactive: 0.085,inactive: -0.105,inactive: -0.028,inactive: -0.038,inactive: 0.059,inactive: -0.095,inactive: -0.026,inactive: -0.064,inactive: 0.046
LYSMD1 (UniProt Q96S90),inactive: -0.039,inactive: 0.032,inactive: 0.048,inactive: -0.058,inactive: 0.038,inactive: -0.018,inactive: 0.009,inactive: -0.048,inactive: -0.038,inactive: 0.064
LUC7L3 (UniProt O95232),inactive: 0.001,inactive: -0.001,inactive: 0.091,active: -2.05,inactive: -0.037,inactive: 0.052,inactive: 0.007,inactive: -0.019,inactive: 0.036,inactive: 0.02
MANF (UniProt P55145),inactive: -0.035,inactive: -0.042,inactive: -0.01,inactive: 0.038,inactive: 0.049,inactive: -0.02,inactive: 0.011,inactive: 0.021,inactive: 0.008,inactive: -0.005
MAPKAPK3 (UniProt Q16644),inactive: 0.258,inactive: 0,inactive: 0.281,inactive: -0.03,inactive: 0.002,inactive: -0.032,inactive: -0.005,inactive: 0,inactive: -0.048,inactive: -0.04
MAP4K4 isoform 3 (UniProt O95819),inactive: -0.068,inactive: 0.029,inactive: -0.038,inactive: -0.094,inactive: -0.162,inactive: -0.09,inactive: -0.024,inactive: 0.038,inactive: -0.027,inactive: 0.021
LRRC8A (UniProt Q8IWT6),inactive: 0.045,inactive: 0.009,inactive: -0.014,inactive: 0.033,inactive: 0.012,inactive: -0.036,inactive: -0.179,inactive: -0.056,inactive: 0.056,inactive: 0.139
MARCKS (UniProt P29966),inactive: -0.102,inactive: -0.133,inactive: 0.053,inactive: -0.003,inactive: 0.022,inactive: -0.007,inactive: 0.033,inactive: 0.034,inactive: -0.002,inactive: -0.017
LRRFIP2 (UniProt Q9Y608),inactive: -0.019,inactive: -0.063,inactive: 0.11,inactive: -0.037,inactive: 0.023,inactive: 0.003,inactive: -0.011,inactive: 0.037,inactive: 0.055,inactive: 0.004
MAPKAPK2 (UniProt P49137),inactive: 0.125,inactive: 0.017,inactive: 0.145,inactive: 0.045,inactive: -0.086,inactive: -0.011,inactive: -0.014,inactive: -0.022,inactive: -0.022,inactive: -0.009
